No constants are given. Whether binding was seen depends on the method and setting. In cells and extracts the contact can be indirect. Some results given as binding are weak or reduced against the parent protein; the word gives no strength.
Assays:
[1] = molecular target: GHSR1a-DM (double mutant Thr350Ala, Ser349Ala) fused at its C terminus to eYFP (UniProt Q92847); experiment: FRET or BRET; BRET titration in living HEK 293 cells; constant amount of Rluc-ß-arrestin (donor) and increasing amounts of YFP-GHSR1a-WT or YFP-GHSR1a-DM (acceptor), treated with ghrelin; net BRET as a function of acceptor/donor; BRET50 as relative affinity
[2] = molecular target: GHSR1a-WT fused at its C terminus to enhanced yellow fluorescent protein (eYFP) (UniProt Q92847); experiment: as above

The chains behind the UniProt entries cited, without tags or fusion partners. Where a name states a change or a piece, a line headed by the entry shows the natural chain unless it says otherwise. A line that says so, or that is headed by a name, gives the form on record, which may keep a tag or linker.
UniProt Q92847: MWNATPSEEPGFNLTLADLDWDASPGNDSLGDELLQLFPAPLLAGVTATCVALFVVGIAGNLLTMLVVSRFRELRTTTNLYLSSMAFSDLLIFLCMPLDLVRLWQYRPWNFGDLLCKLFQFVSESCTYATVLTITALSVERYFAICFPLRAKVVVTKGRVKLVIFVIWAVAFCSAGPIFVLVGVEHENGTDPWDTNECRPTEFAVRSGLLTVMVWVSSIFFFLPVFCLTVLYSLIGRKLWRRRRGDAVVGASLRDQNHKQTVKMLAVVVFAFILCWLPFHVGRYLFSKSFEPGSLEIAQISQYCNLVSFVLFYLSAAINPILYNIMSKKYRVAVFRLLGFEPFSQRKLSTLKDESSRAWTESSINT
GHSR1a-DM (double mutant Thr350Ala, Ser349Ala) fused at its C terminus to eYFP (Q92847, form named): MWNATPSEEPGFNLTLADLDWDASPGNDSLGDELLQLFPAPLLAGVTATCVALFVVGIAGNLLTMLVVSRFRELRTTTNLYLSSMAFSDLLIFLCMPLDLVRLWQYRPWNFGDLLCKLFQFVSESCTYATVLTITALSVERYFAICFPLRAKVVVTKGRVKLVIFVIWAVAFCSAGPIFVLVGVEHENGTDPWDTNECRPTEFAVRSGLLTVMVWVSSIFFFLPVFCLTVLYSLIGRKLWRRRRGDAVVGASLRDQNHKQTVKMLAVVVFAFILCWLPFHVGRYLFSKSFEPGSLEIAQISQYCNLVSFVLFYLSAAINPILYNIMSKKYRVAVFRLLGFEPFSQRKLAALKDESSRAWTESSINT

binding [1]	binding [2]	Molecule
binds	binds	ß-arrestin 2 tagged with Rluc at its C-terminus (from UniProt P32121 1-409)
binds	binds	Renilla luciferase-tagged ß-arrestin 1 (natural protein, UniProt P49407 1-418, looked up, plasmid provided by Prof; Mark Scott (Institut Cochin, Paris); also called Rluc-ß-arrestin 1; source: HEK 293, transiently co-transfected (Lipofectamine 2000), in living cells) MGDKGTRVFKKASPNGKLTVYLGKRDFVDHIDLVDPVDGVVLVDPEYLKERRVYVTLTCAFRYGREDLDVLGLTFRKDLFVANVQSFPPAPEDKKPLTRLQERLIKKLGEHAYPFTFEIPPNLPCSVTLQPGPEDTGKACGVDYEVKAFCAENLEEKIHKRNSVRLVIRKVQYAPERPGPQPTAETTRQFLMSDKPLHLEASLDKEIYYHGEPISVNVHVTNNTNKTVKKIKISVRQYADICLFNTAQYKCPVAMEEADDTVAPSSTFCKVYTLTPFLANNREKRGLALDGKLKHEDTNLASSTLLREGANREILGIIVSYKVKVKLVVSRGGLLGDLASSDVAVELPFTLMHPKPKEEPPHREVPENETPVDTNLIELDTNDDDIVFEDFARQRLKGMKDDKEEEEDGTGSPQLNNR
